These results are taken from the supplement of paper PMC12542422.

Structures can show the parent of a compound that is named as a salt. ± gives the standard deviation of the averaged measurements. The list shows a part of the results. These are raw signals, not scaled to a control.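 Ribosome-assembly readouts in HeLa cells were imaged via ENP1 staining, with or without export block, or inducible tagged ribosomal protein reporters. Machine learning classified per-cell signal location versus solvent (DMSO) controls. Hits surpassed the DMSO false-positive mean by five standard deviations and were visually confirmed; three biological replicates.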

One test deals with HeLa K (ENP1 immunofluorescence, no LMB). The test can be described thus: fraction of cells with nucleolar or nucleolar/nucleoplasmic ENP1 signal (MainHitrate); higher = more cells with nucleolar/nuclear readout signal (for ENP1 -LMB: less RNAPI inhibition; for +LMB ENP1 and RP reporters: stronger nuclear/nucleolar retention, i.e. ribosome biogenesis defect). The conditions noted are these: concentration: 1 µM; treatment time: 6 h; ENP1 -LMB; leptomycin B: none.
Take `CN1CCC[C@@H]1CCO[C@](C)(c1ccccc1)c1ccc(Cl)cc1` [Clemastine Fumarate]: the fraction came to 0.99 ± 0.018.
`O=c1oc2c(O)c(O)cc3c(=O)oc4c(O)c(O)cc1c4c23` [Ellagic acid]: the fraction stood at 0.9978 ± 0.0038.
In turn, `CCOC(=O)C1=C(C)NC(C)=C(C(=O)OC)C1c1cccc(Cl)c1Cl` (stereo not given) [Felodipine (Plendil)] showed a fraction of 0.991 ± 0.016.
`Nc1nnc(-c2cccc(Cl)c2Cl)c(N)n1` [Lamotrigine] gave a fraction of 0.98 ± 0.035.
As for `O=C1c2c(O)ccc(O)c2C(=O)c2c(NCCNCCO)ccc(NCCNCCO)c21` [Mitoxantrone Hydrochloride], the fraction was 0.697 ± 0.52.
The molecule `C[C@H]1C[C@H]2[C@@H]3CCC4=CC(=O)C=C[C@]4(C)[C@H]3C(=O)C[C@]2(C)[C@@]1(O)C(=O)CO` [Betapar (Meprednisone)] registered a fraction of 0.9983 ± 0.0029.
Molecule `CN1[C@@H]2CC[C@H]1C[C@@H](OC(=O)c1c[nH]c3ccccc13)C2` [Tropisetron] registered a fraction of 0.988 ± 0.02.
On to `COc1ccccc1OCCNCC(O)COc1cccc2[nH]c3ccccc3c12` (stereo not given) [Carvedilol], for which the fraction worked out at 0.993 ± 0.013.
On to `C[C@@H](O[C@H]1OCCN(Cc2nn(P(=O)(O)O)c(=O)[nH]2)[C@H]1c1ccc(F)cc1)c1cc(C(F)(F)F)cc(C(F)(F)F)c1` [Fosaprepitant dimeglumine], for which the fraction came to 0.979 ± 0.037.
`CC(=O)Nc1ncc([N+](=O)[O-])s1` [Nithiamide] returned a fraction of 0.989 ± 0.019.
Still for that read-out and setting: for `C=C(NC(=O)C(=C)NC(=O)c1csc(C2=N[C@@H]3c4csc(n4)[C@H]4NC(=O)c5csc(n5)[C@H]([C@](C)(O)[C@@H](C)O)NC(=O)[C@H]5CSC(=N5)/C(=C/C)NC(=O)[C@H]([C@@H](C)O)NC(=O)c5csc(n5)[C@]3(CC2)NC(=O)[C@H](C)NC(=O)C(=C)NC(=O)[C@H](C)NC(=O)[C@H]([C@@H](C)CC)N[C@@H]2C=Cc3c([C@H](C)O)cc(nc3[C@H]2O)C(=O)O[C@@H]4C)n1)C(N)=O` [Thiostrepton] the value was 0.915 ± 0.15; for `Cc1ccc(NC(=O)c2ccc(CN3CCN(C)CC3)cc2)cc1Nc1nc(-c2cccnc2)cs1` [Masitinib (AB1010)], 0.998 ± 0.0034.
Same read-out and setting: for `CC(=O)O[C@@]12CO[C@@H]1C[C@H](O)[C@@]1(C)C(=O)[C@H](O)C3=C(C)[C@@H](OC(=O)[C@H](O)[C@@H](NC(=O)OC(C)(C)C)c4ccccc4)C[C@@](O)([C@@H](OC(=O)c4ccccc4)[C@H]21)C3(C)C` [Docetaxel (Taxotere)] the value was 0.993 ± 0.012.
In turn, `CCCNCC(O)COc1ccccc1C(=O)CCc1ccccc1` (stereo not given) [Propafenone (Rytmonorm)] displayed a fraction of 0.9946 ± 0.0093.
In turn, `CCCc1cc(=O)[nH]c(=S)[nH]1` [Propylthiouracil] displayed a fraction of 0.9944 ± 0.0097.
On to `CC(C)NCC(O)c1cc(O)cc(O)c1` (stereo not given) [Metaproterenol Sulfate], for which the fraction turned out to be 0.9946 ± 0.0094.
Take `Nc1nc2[nH]cnc2c(=S)[nH]1` [Thioguanine]: the fraction is 0.9992 ± 0.0014.
Turning to `CN(C)c1ccc(O)c2c1C[C@H]1C[C@H]3[C@H](N(C)C)C(O)=C(C(N)=O)C(=O)[C@@]3(O)C(O)=C1C2=O` [Minocycline HCl], the fraction worked out at 0.99 ± 0.017.
The same measure, in the same setting: for `Nc1nc2[nH]cc(CCc3ccc(C(=O)N[C@@H](CCC(=O)O)C(=O)O)cc3)c2c(=O)[nH]1` [Pemetrexed] the value was 0.9987 ± 0.0022.
For the molecule `C[C@@H]1C/C=C/C=C/C=C/C=C/[C@H](O[C@@H]2O[C@H](C)[C@@H](O)[C@H](N)[C@@H]2O)C[C@@H]2O[C@](O)(C[C@@H](O)C[C@H]3O[C@@H]3/C=C/C(=O)O1)C[C@H](O)[C@H]2C(=O)O` [Natamycin (Pimaricin)], the fraction turned out to be 0.998 ± 0.0034.
Regarding `C=CCc1cc(OC)c(O)c(C(=O)NCCO)c1` [Alibendol], the fraction was determined as 0.985 ± 0.025.
Turning to `CCCN1CCCC[C@H]1C(=O)Nc1c(C)cccc1C` [Ropivacaine HCl], the fraction turned out to be 0.9961 ± 0.0067.
`COc1ccc(CC2c3cc(OC)c(OC)cc3CC[N+]2(C)CCC(=O)OCCCCCOC(=O)CC[N+]2(C)CCc3cc(OC)c(OC)cc3C2Cc2ccc(OC)c(OC)c2)cc1OC` (stereo not given) [Atracurium besylate] had a fraction of 0.9954 ± 0.008.
Still for that read-out and setting: for `CCOC(=O)[C@H](CCc1ccccc1)N[C@H]1CS[C@H](c2cccs2)CN(CC(=O)O)C1=O` [Temocapril HCl] the value was 0.9959 ± 0.007; for `CC(C)NC[C@H](O)COc1ccc(CCOCC2CC2)cc1` [Levobetaxolol HCl], 0.985 ± 0.026; for `C[C@H](N)[C@H](O)c1cccc(O)c1` [Metaraminol Bitartrate], 0.9943 ± 0.0098.
In the case of `Cn1c(=O)c2[nH]cnc2n(C)c1=O` [Aminophylline (Truphylline)], the fraction came out at 0.998 ± 0.0034.
Regarding `N#CC[C@H](C1CCCC1)n1cc(-c2ncnc3[nH]ccc23)cn1`, the fraction is 0.9988 ± 0.0021.
As to `NCCc1c[nH]cn1` [Histamine Phosphate], the fraction amounted to 0.993 ± 0.012.

Another test has as its system HeLa RPS2-YFP reporter. The test can be described thus: fraction of reporter-positive cells with nuclear (nucleolar or nucleolar/nucleoplasmic) RPS2-YFP (MainHitrate); higher = more cells with nucleolar/nuclear readout signal (for ENP1 -LMB: less RNAPI inhibition; for +LMB ENP1 and RP reporters: stronger nuclear/nucleolar retention, i.e. ribosome biogenesis defect). Particulars: concentration: 1 µM; treatment time: 6 h.
`O=C(N/N=C/c1ccc([N+](=O)[O-])o1)c1ccc(O)cc1` [Nifuroxazide]: the “fraction of reporter-positive cells with nuclear” value (“fraction … with nuclear” for short) was determined as 0.119 ± 0.1.
As to `N[C@H](C(=O)O)[C@H](O)c1ccc(O)c(O)c1` [Droxidopa (L-DOPS)], the “fraction … with nuclear” value was 0.116 ± 0.095.
As for `N=C(N)NC(=N)N1CCOCC1` [Moroxydine], the “fraction … with nuclear” value is 0.109 ± 0.08.
As for `COc1ccc(C(=O)CC(=O)c2ccc(C(C)(C)C)cc2)cc1` [Avobenzone (Parsol 1789)], the “fraction … with nuclear” value worked out at 0.114 ± 0.065.
On to `CC[C@H]1OC(=O)[C@H](C)[C@@H](O[C@H]2C[C@@](C)(OC)[C@@H](O)[C@H](C)O2)[C@H](C)[C@@H](O[C@@H]2O[C@H](C)C[C@H](N(C)C)[C@H]2O)[C@](C)(O)C[C@@H](C)C(=O)[C@H](C)[C@@H](O)[C@]1(C)O` [Erythromycin (E-Mycin)], for which the “fraction … with nuclear” value is 0.104 ± 0.057.
Take `C[C@H](CCC(=O)O)[C@H]1CC[C@H]2[C@@H]3CC[C@@H]4C[C@H](O)CC[C@]4(C)[C@H]3CC[C@]12C` [Lithocholic acid]: the “fraction … with nuclear” value worked out at 0.133 ± 0.11.
Turning to `CC(=O)SCC(Cc1ccccc1)C(=O)NCC(=O)OCc1ccccc1` (stereo not given) [Racecadotril (Acetorphan)], the “fraction … with nuclear” value was found to be 0.129 ± 0.089.
On to `Nc1nc(NC2CC2)c2ncn([C@H]3C=C[C@@H](CO)C3)c2n1` [Abacavir sulfate], for which the “fraction … with nuclear” value amounted to 0.121 ± 0.095.
Take `CC(C)Cc1ccc(C(C)C(=O)O)cc1` (stereo not given) [Ibuprofen Lysine (NeoProfen)]: the “fraction … with nuclear” value turned out to be 0.124 ± 0.08.
`Nc1ccn([C@@H]2O[C@H](CO)[C@@H](O)C2(F)F)c(=O)n1` [Gemcitabine HCl (Gemzar)]: the “fraction … with nuclear” value is 0.066 ± 0.034.
Still for that read-out and setting: for `COc1ccc2c(c1)c(CC(=O)O)c(C)n2C(=O)c1ccc(Cl)cc1` [Indomethacin (Indocid, Indocin)] the value was 0.131 ± 0.048.
The same measure, in the same setting: for `CN1CCC[C@@H]1CCO[C@](C)(c1ccccc1)c1ccc(Cl)cc1` [Clemastine Fumarate] the value was 0.109 ± 0.071.
As to `O=c1oc2c(O)c(O)cc3c(=O)oc4c(O)c(O)cc1c4c23` [Ellagic acid], the “fraction … with nuclear” value came out at 0.115 ± 0.075.
Turning to `CCOC(=O)C1=C(C)NC(C)=C(C(=O)OC)C1c1cccc(Cl)c1Cl` (stereo not given) [Felodipine (Plendil)], the “fraction … with nuclear” value stood at 0.0954 ± 0.084.
For `Nc1nnc(-c2cccc(Cl)c2Cl)c(N)n1` [Lamotrigine], the “fraction … with nuclear” value turned out to be 0.126 ± 0.099.
Consider `O=C1c2c(O)ccc(O)c2C(=O)c2c(NCCNCCO)ccc(NCCNCCO)c21` [Mitoxantrone Hydrochloride], for which the “fraction … with nuclear” value worked out at 0.0385 ± 0.012.
With `C[C@H]1C[C@H]2[C@@H]3CCC4=CC(=O)C=C[C@]4(C)[C@H]3C(=O)C[C@]2(C)[C@@]1(O)C(=O)CO` [Betapar (Meprednisone)], the “fraction … with nuclear” value came out at 0.107 ± 0.08.
As to `CN1[C@@H]2CC[C@H]1C[C@@H](OC(=O)c1c[nH]c3ccccc13)C2` [Tropisetron], the “fraction … with nuclear” value turned out to be 0.133 ± 0.041.
In the case of `COc1ccccc1OCCNCC(O)COc1cccc2[nH]c3ccccc3c12` (stereo not given) [Carvedilol], the “fraction … with nuclear” value amounted to 0.13 ± 0.1.
As for `C[C@@H](O[C@H]1OCCN(Cc2nn(P(=O)(O)O)c(=O)[nH]2)[C@H]1c1ccc(F)cc1)c1cc(C(F)(F)F)cc(C(F)(F)F)c1` [Fosaprepitant dimeglumine], the “fraction … with nuclear” value turned out to be 0.118 ± 0.1.
Turning to `CC(=O)Nc1ncc([N+](=O)[O-])s1` [Nithiamide], the “fraction … with nuclear” value came out at 0.123 ± 0.077.
Still for that read-out and setting: for `C=C(NC(=O)C(=C)NC(=O)c1csc(C2=N[C@@H]3c4csc(n4)[C@H]4NC(=O)c5csc(n5)[C@H]([C@](C)(O)[C@@H](C)O)NC(=O)[C@H]5CSC(=N5)/C(=C/C)NC(=O)[C@H]([C@@H](C)O)NC(=O)c5csc(n5)[C@]3(CC2)NC(=O)[C@H](C)NC(=O)C(=C)NC(=O)[C@H](C)NC(=O)[C@H]([C@@H](C)CC)N[C@@H]2C=Cc3c([C@H](C)O)cc(nc3[C@H]2O)C(=O)O[C@@H]4C)n1)C(N)=O` [Thiostrepton] the value was 0.215 ± 0.21; for `Cc1ccc(NC(=O)c2ccc(CN3CCN(C)CC3)cc2)cc1Nc1nc(-c2cccnc2)cs1` [Masitinib (AB1010)], 0.103 ± 0.092.
On to `CC(=O)O[C@@]12CO[C@@H]1C[C@H](O)[C@@]1(C)C(=O)[C@H](O)C3=C(C)[C@@H](OC(=O)[C@H](O)[C@@H](NC(=O)OC(C)(C)C)c4ccccc4)C[C@@](O)([C@@H](OC(=O)c4ccccc4)[C@H]21)C3(C)C` [Docetaxel (Taxotere)], for which the “fraction … with nuclear” value amounted to 0.153 ± 0.12.
Turning to `CCCNCC(O)COc1ccccc1C(=O)CCc1ccccc1` (stereo not given) [Propafenone (Rytmonorm)], the “fraction … with nuclear” value turned out to be 0.112 ± 0.068.
Regarding `CCCc1cc(=O)[nH]c(=S)[nH]1` [Propylthiouracil], the “fraction … with nuclear” value came to 0.109 ± 0.079.
`CC(C)NCC(O)c1cc(O)cc(O)c1` (stereo not given) [Metaproterenol Sulfate]: the “fraction … with nuclear” value was found to be 0.178 ± 0.17.
On to `Nc1nc2[nH]cnc2c(=S)[nH]1` [Thioguanine], for which the “fraction … with nuclear” value stood at 0.13 ± 0.068.
Regarding `CN(C)c1ccc(O)c2c1C[C@H]1C[C@H]3[C@H](N(C)C)C(O)=C(C(N)=O)C(=O)[C@@]3(O)C(O)=C1C2=O` [Minocycline HCl], the “fraction … with nuclear” value came to 0.116 ± 0.081.
For the molecule `Nc1nc2[nH]cc(CCc3ccc(C(=O)N[C@@H](CCC(=O)O)C(=O)O)cc3)c2c(=O)[nH]1` [Pemetrexed], the “fraction … with nuclear” value amounted to 0.124 ± 0.059.
For the molecule `C[C@@H]1C/C=C/C=C/C=C/C=C/[C@H](O[C@@H]2O[C@H](C)[C@@H](O)[C@H](N)[C@@H]2O)C[C@@H]2O[C@](O)(C[C@@H](O)C[C@H]3O[C@@H]3/C=C/C(=O)O1)C[C@H](O)[C@H]2C(=O)O` [Natamycin (Pimaricin)], the “fraction … with nuclear” value came to 0.0785 ± 0.065.
